# Source: PubChem BioAssay AID1671190 (National Center for Advancing Translational Sciences (NCATS), 2021)
# Amino acid sequences for entries named in this document (tags omitted).
# UniProt P18054, whole entry, looked up: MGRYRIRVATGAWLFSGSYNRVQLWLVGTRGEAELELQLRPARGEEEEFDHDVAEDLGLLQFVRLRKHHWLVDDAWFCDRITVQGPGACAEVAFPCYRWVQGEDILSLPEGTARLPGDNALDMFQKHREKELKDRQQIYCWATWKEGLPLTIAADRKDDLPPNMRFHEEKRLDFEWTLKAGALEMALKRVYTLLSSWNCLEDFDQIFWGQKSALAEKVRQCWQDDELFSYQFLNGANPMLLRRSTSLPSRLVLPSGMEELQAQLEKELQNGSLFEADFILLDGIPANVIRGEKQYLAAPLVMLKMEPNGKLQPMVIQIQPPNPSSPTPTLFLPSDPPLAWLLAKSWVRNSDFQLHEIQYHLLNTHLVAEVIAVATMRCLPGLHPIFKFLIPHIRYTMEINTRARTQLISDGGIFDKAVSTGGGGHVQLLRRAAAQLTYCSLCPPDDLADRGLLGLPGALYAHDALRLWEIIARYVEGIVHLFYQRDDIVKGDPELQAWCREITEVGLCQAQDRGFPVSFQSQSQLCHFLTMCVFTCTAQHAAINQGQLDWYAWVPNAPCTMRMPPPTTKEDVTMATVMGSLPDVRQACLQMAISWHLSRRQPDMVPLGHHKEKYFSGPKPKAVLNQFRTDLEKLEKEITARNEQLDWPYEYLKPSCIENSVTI
# Among all 580,000 compounds or so, about 6,100 (1.1%) were called active. Inconclusive means that the source gave no clear call. Such entries were picked first, then a sample of the others. Calls follow the shape of the dose curve; as a rule, active = well fitted inhibition curve with a large enough effect; inconclusive = small, poorly fitted or top-dose-only effect, or another doubt; inactive = no such curve, though single readings can be large or run the other way. Where the call is inconclusive, the potency comes from a doubtful curve fit.
# Target: Polyunsaturated fatty acid lipoxygenase ALOX12 (Homo sapiens) (UniProt P18054)
# Assay: Primary qHTS assay for inhibitors of human arachidonate 12S-lipoxygenase (ALOX12): Round 2
# Settings: purified 12hLO, xylenol orange hydroperoxide absorbance; activity change, negative = inhibition: at 108 µM (top of the series) unless noted
# How it was run: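 Purified human 12hLO (150 nM final) in 25 mM Hepes, 0.01% Triton X-100, pH 7.0 was preincubated 15 min at room temperature with compound. Then 40 uM arachidonic acid was added, 30 min. Hydroperoxide was read by Fe-XO absorbance ratio 573/405 nm.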
# % is scaled to controls: 0 for no effect and ±100 for the full control effect; potency is read from the fitted curve at half-maximal effect.
SMILES,Potency,"activity change, negative = inhibition"
CCOc1ccc(NC(=O)c2ccc3c(O)c(S(=O)(=O)c4ccc(Cl)cc4)c(=O)[nH]c3c2)cc1,"inconclusive: 50.1 µM [inhibitor, partial curve, poor fit]",
c1ccc(CCNc2nc(-c3c[nH]c4ccccc34)cs2)cc1,active: 44.7 µM,
COCCN(C(=O)COC(=O)CSc1ccc(Cl)cc1)c1c(N)n(Cc2ccccc2)c(=O)[nH]c1=O,"inconclusive: 100 µM [inhibitor, single point]",
COCCN=C1N[C@@H](c2cccc(C(F)(F)F)c2)C(C(=O)OC)=C(C)N1Cc1ccccc1,"inconclusive: 56.2 µM [inhibitor, partial curve, poor fit]",
O=C1N[C@@H](Cc2ccccc2)COC(=O)[C@H](Cc2ccc(F)cc2)C/C=C\C[C@H]1CC(=O)N(CCO)Cc1ccccc1,"inconclusive: 5.01 µM [inhibitor, full curve]",
COc1ccc(OC)c(-c2nnc3ccc(-c4ccc(OC)c(O[C@@H]5CCOC5)c4)nn23)c1,"inconclusive: 0.172 µM [inhibitor, full curve, poor fit]",
CC(C)Sc1nc(SCC(=O)NCc2ccco2)c2c3c(sc2n1)COC(C)(C)C3,"inconclusive: 44.7 µM [inhibitor, single point]",
C[C@H]1CN([C@@H](C)CO)C(=O)c2cccc(NC(=O)Nc3ccc(C(F)(F)F)cc3)c2O[C@@H]1CN(C)S(=O)(=O)c1ccc(Cl)cc1,,inactive: -23.1%
COc1ccccc1Cn1c(=S)[nH]c2cc(C(=O)N3CCC(C(N)=O)CC3)ccc2c1=O,"inconclusive: 50.1 µM [inhibitor, partial curve, poor fit]",
CCS(=O)(=O)Nc1cc(C(=O)O)ccc1C,"inconclusive: 158 µM [inhibitor, single point]",
COc1ccc(C#Cc2c(-c3ccccc3)n(C)c3ccccc23)cc1,"inconclusive: 50.1 µM [inhibitor, partial curve, poor fit]",
COc1ccc(Oc2ccc(C(F)(F)F)cc2NC(=O)CC(CC(=O)O)c2ccccc2)cc1 (centres undefined),"inconclusive: 31.6 µM [inhibitor, partial curve, poor fit]",
CC1=C(C(=O)OCC2CCCO2)C(c2ccccc2)C2=C(CCCC2=O)N1 (centres undefined),,inactive: -27.7%
CCC(=O)N1c2ccc(S(=O)(=O)NCc3ccccc3)cc2CC1C (centres undefined),"inconclusive: 0.708 µM [inhibitor, full curve, poor fit]",
CS(=O)(=O)c1ccc2nc(NC(=O)CN3CCCCCC3)sc2c1,"inconclusive: 0.562 µM [inhibitor, full curve, poor fit]",
CCOc1cccc2cc(-c3nnc(NCc4ccc5c(c4)OCO5)s3)c(=O)oc12,,inactive: -15.7%
O=C(NC(=S)Nc1cccc(Cl)c1N1CCOCC1)c1cccs1,"inconclusive: 1.78 µM [inhibitor, full curve, poor fit]",
O=C(Nc1nc2c(Cl)cccc2s1)c1ccc(S(=O)(=O)N2CCc3ccccc32)cc1,"inconclusive: 89.1 µM [inhibitor, partial curve, poor fit]",
CCc1ccccc1NC(=O)CCS(=O)(=O)c1ccc(C)cc1,,inactive: 55.4%
CC(C)c1ccc(CNC(C)c2ccc(S(C)(=O)=O)cc2)cc1 (centres undefined),,inactive: 54.8%

SMILES,Potency,"activity change, negative = inhibition"
CC(=O)N(C(C)=O)c1cccc(N(Cc2ccccc2)Cc2ccccc2)c1,"inconclusive: 89.1 µM [inhibitor, single point]",
N#Cc1c(NC(=S)NC(=O)c2ccccc2)sc2c1CCC2,"inconclusive: 14.1 µM [inhibitor, full curve, poor fit]",
Cc1ccc(C(=O)NC(Cc2c[nH]c3ccccc23)C(=O)O)cc1 (centres undefined),"inconclusive: 56.2 µM [inhibitor, partial curve, poor fit]",
O=C(CN1CCOCC1)Nc1ccc(OC(F)(F)F)cc1,"inconclusive: 0.447 µM [inhibitor, full curve, poor fit]",
Cc1nnc(N2C(=O)C(O)=C(C(=O)c3ccco3)C2c2ccc(C(C)(C)C)cc2)s1 (centres undefined),active: 7.94 µM,
COc1ccccc1C(=O)Nc1ccnn1C1CCN(CCCC2CCCC2)CC1,,inactive: 0.0718%
CCCCCCSc1nc2c(c(=O)[nH]c(=O)n2C)n1CC,"inconclusive: 28.2 µM [inhibitor, partial curve]",
CCOP(=O)(OCC)c1nc(-c2ccc([N+](=O)[O-])cc2)oc1NCc1ccc(C)cc1,active: 10 µM,
COc1cccc(-c2nc(S(=O)(=O)c3ccc(C)cc3)c(N3CCCCCC3)o2)c1,,inactive: -27.5%
CCOC(=O)c1ccc(N2C(=O)c3n[nH]c(-c4ccco4)c3C2c2ccc(OC)cc2OC)cc1 (centres undefined),"inconclusive: 10 µM [inhibitor, partial curve, poor fit]",
CC(=C/c1ccccc1)/C=C1/Cc2ccccc2C1=O,"inconclusive: 25.1 µM [inhibitor, partial curve]",
O=C(N[C@H]1[C@H](O)[C@H](O)C[C@@H]1c1ccc(C(F)(F)F)nc1)c1nc2ccccc2s1,"inconclusive: 56.2 µM [inhibitor, partial curve, poor fit]",
COc1ccc([N+](=O)[O-])cc1N(CC(=O)Nc1ccccc1C(=O)N1CCCC1)S(C)(=O)=O,"inconclusive: 35.5 µM [inhibitor, single point]",
CC(=O)c1ccc(NC(=O)Nc2ccc3snnc3c2)cc1,"inconclusive: 50.1 µM [inhibitor, partial curve]",
Cc1cc(C)c(NC(=O)/C(=C/c2ccccc2)c2ccccc2)c(C)c1,,inactive: -18.5%
O=C(O)c1cccc2c1C(=O)c1cc([N+](=O)[O-])ccc1-2,"inconclusive: 6.31 µM [inhibitor, full curve, poor fit]",
Cc1noc(C)c1-c1cc2c(cc(C)n2CCN(C)C)c(-c2cccc(O)c2)n1,"inconclusive: 63.1 µM [inhibitor, partial curve]",
O=C(O)c1ccc([N+](=O)[O-])cc1Sc1ccsc1,"inconclusive: 0.282 µM [inhibitor, full curve, poor fit]",
COc1ccccc1NC(=O)CCc1nc2sc3c(c2c(=O)[nH]1)CCCC3,"inconclusive: 12.6 µM [inhibitor, full curve, poor fit]",
